From publication PMC10893700
Where a chain is given by its changes, count along the chain named. These are yes or no findings as the source states them, for the method shown. In cells and extracts the contact can be indirect. Some results given as binding are weak or reduced against the parent protein; the word gives no strength. Sequences can lack the tags named with a protein.

The chains behind the UniProt entries cited, without tags or fusion partners. Residues count along the entry.
UniProt Q07021, residues 74-282: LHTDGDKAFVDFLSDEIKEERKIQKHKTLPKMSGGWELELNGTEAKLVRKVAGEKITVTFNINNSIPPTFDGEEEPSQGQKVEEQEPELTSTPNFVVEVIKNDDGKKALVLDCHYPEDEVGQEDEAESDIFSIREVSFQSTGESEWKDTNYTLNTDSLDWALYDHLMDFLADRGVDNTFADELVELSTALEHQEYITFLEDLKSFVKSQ

Tests used:
Assay in all cases: co-IP; lysate of about 3 x 10^6 Hela cells stably expressing hCHCHD2-MYC, RIPA lysis buffer with protease inhibitor, EZview Red Anti-c-Myc Affinity Gel, 2 h at 4 °C; Western blot for p32; n = 3
[1] = biological target: T1, hCHCHD2-Thr61Ile-MYC (Hela cells) (human) (UniProt Q9Y6H1)
T1 sequence: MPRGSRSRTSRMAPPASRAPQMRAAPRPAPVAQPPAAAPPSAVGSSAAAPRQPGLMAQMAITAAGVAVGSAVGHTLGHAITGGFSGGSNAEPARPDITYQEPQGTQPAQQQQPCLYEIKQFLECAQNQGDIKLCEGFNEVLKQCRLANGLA

[2] = biological target: T2, hCHCHD2-Arg145Gln-MYC (Hela cells) (human) (UniProt Q9Y6H1)
T2 sequence: T1 sequence with I61T, R145Q

[3] = biological target: T3, wild type hCHCHD2-MYC (Hela cells) (human) (UniProt Q9Y6H1)
T3 sequence: T1 sequence with I61T

Measured: binding

p32 (Hela cells) (from UniProt Q07021 74-282)
binds: all assays above
